# Test results taken from patent US5707963A, “Methods of using growth inhibitory peptides” (Health Research, Incorporated, priority 1996, dated 1998).
# Not every detail of the peptide structures is certain; ends, links or a residue may be inferred. Peptide text beside a SMILES is read from it.
# System: estrogen-stimulated growth of mouse uterus
# Type: in vivo
# Settings: immature mouse uterus, 10-100 ng per mouse, peak assay point of the dilution series
# Protocol: An in vivo wet weight bioassay measuring inhibition of estrogen-stimulated growth of uteri was performed. The procedure of Mizejewski et al. was used for the wet weight assay (see Mizejewski, G. J. et al. (1983); Mizejewski, G. J. et al. (1986); Mizejewski, G. J. and A. S. Warner (1989); Mizejewski, G. J. et al., "Separation of the Estrogen-Activated Growth-Regulatory Forms of Alpha-Fetoprotein in Mouse Amniotic Fluid," Biol of Reprod 42:887-898 (1990); and Allen, S.H.G. et al. (1993)).
# Briefly, the synthesized powdered peptide was reconstituted in saline (1 mg/ml) to form a stock solution of the GIP. The stock solution was appropriately diluted to provide dosages of 25 to 100 ng/mouse. 0.1 ml of the appropriately diluted GIP was injected intraperitoneally into 15-18 day old Nya:NYLAR female mice. Control mice were injected with saline or other peptides, including a peptide encoded by a portion of the amino acid sequence of albumin and a random 34 amino acid peptide. 1 hour after this first injection, an estrogen challenge of 0.5 micrograms of E2 in 0.1 ml saline was given to determine the change in uterine responsiveness to E2 resulting from exposure to the first injection. […] Percent inhibition of estrogen-stimulated uterine growth was calculated as described by Mizejewski et al. (1983). […]
structure (smiles),measurement,value
CSCC[C@H](NC(=O)[C@@H](N)CCC(=O)O)C(=O)N[C@H](C(=O)N1CCC[C@H]1C(=O)N[C@H](C(=O)N[C@@H](CC(N)=O)C(=O)N1CCC[C@H]1C(=O)NCC(=O)O)C(C)C)[C@@H](C)O [SEQ ID NO:4] (H-EMTPVNPG-OH),Percent Growth Inhibition,41%
